Assay results taken from PMC2697983.

Amino acid sequences for entries named in this document (tags omitted). A change or cut given only in a name is not applied to a line headed by its entry.
UniProt Q60749: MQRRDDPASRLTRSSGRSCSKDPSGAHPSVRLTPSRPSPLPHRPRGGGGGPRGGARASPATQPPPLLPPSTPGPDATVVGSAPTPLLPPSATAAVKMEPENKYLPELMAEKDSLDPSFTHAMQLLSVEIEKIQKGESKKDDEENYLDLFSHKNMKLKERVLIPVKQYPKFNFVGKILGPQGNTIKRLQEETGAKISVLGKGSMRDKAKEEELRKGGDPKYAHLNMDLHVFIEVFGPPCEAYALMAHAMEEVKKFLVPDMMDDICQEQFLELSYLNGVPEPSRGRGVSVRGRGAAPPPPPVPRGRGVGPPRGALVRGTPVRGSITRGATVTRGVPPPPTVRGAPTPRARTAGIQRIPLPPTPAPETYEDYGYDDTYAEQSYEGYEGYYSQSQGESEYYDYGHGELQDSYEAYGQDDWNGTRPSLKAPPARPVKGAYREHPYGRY

Each sequence was assayed on His-SLM-2 (assay: EMSA). Details: affinity like SRE-4wt (not shown); EMSA: 20 mM HEPES pH 7.4, 330 mM KCl, 10 mM MgCl2, 0.1 mM EDTA, 0.1 mg/ml heparin, 0.01% IGEPAL CA630, room temperature, 1 h; recombinant protein; protein details: His; label: 32P.

Does “UUUGGGGGUUCAAUAAAAAUUUUCACUAUCCUAUUAACAGUUCCGCCGCUCC [SRE-4 (52-mer)]” bind?
Result: binds

These sequences were tested against His-GSG(SAM68) (mouse) (UniProt Q60749) (assay: EMSA). Details: EMSA: 20 mM HEPES pH 7.4, 330 mM KCl, 10 mM MgCl2, 0.1 mM EDTA, 0.1 mg/ml heparin, 0.01% IGEPAL CA630, room temperature, 1 h; recombinant protein; protein details: His; label: 32P.

Does “GGUUCUACCCCAAUUUUCACUAUCCUAUUAACAGUUCC [SRE-4m2]” bind?
Result: binds more weakly

Does “GGUUCUAUAAAAAUUUUCACUAUCCUACCCCCAGUUCC [SRE-4m3]” bind?
Result: no binding

Does “GGUUCUAUACCCCCUUUCACUAUCCUAUUAACAGUUCC [SRE-4m4]” bind?
Result: no binding

Does “GGUUCUAUAAAAAUUUUCACUAUCCUAUUAACAGUUCC [SRE-4wt]” bind?
Result: binds

Does “GGUUCUACCCCAAUUUUCACUAUCCUACCCCCAGUUCC [SRE-4m1]” bind?
Result: no binding

The exact form of at least one protein or probe is not confirmed. For part of these data: No signal at the amounts used counts as a negative. For part of these data: At least one verdict rests on a figure or table, not on a statement of the authors. For part of these data: Weaker means in comparison with the reference protein, sequence or condition of that experiment.
